Assay results as given in article PMC2259325.
Results are given in words; binding and its absence hold for the method and conditions named. For some of these results: Binding calls can cover weak binding; strength is not graded here.

The chains behind the UniProt entries cited, without tags or fusion partners. Where a name states a change or a piece, a line headed by the entry shows the natural chain unless it says otherwise. A line that says so, or that is headed by a name, gives the form on record, which may keep a tag or linker. Residues count along the entry.
GST-Fyn SH3 domain fusion protein (P06241, residues 82-143): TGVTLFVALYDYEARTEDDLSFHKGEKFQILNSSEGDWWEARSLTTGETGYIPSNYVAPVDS
GST-Fyn SH3 domain A95S (P06241, form named): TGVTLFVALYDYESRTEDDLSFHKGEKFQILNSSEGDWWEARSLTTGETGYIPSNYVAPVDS
GST-Fyn SH3 domain D100A (P06241, form named): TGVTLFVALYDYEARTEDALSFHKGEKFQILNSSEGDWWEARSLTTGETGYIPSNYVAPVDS
GST-Fyn SH3 domain D99A (P06241, form named): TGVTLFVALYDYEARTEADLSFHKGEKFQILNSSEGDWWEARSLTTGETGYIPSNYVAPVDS
GST-Fyn SH3 domain E121L (P06241, form named): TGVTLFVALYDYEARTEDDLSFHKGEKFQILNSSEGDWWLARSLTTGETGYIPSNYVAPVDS
GST-Fyn SH3 domain E129Q (P06241, form named): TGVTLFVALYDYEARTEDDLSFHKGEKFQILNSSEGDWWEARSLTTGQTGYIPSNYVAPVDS
GST-Fyn SH3 domain L112V (P06241, form named): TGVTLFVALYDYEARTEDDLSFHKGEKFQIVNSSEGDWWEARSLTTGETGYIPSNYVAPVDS
GST-Fyn SH3 domain N136A/Y137A (P06241, form named): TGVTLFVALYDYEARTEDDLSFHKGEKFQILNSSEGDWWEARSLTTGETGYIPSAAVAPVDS
GST-Fyn SH3 domain W119A (P06241, form named): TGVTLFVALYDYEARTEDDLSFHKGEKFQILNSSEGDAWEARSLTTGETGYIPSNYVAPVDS
GST-Fyn SH3 domain Y91A/Y93A (P06241, form named): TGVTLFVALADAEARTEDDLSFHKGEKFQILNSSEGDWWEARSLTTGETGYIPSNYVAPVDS

What was measured:
GST-Fyn SH3 domain A95S = GST-Fyn SH3 domain A95S (UniProt P06241); experiment: ELISA; 1 μg/well GST-SH3 fusion coated on microplates; 0.5 μg/well purified NS5A in PBS-T, 2 h, 4°C; detection with sheep anti-NS5A serum; normalised to GST loading ELISA; both purified
GST-Fyn SH3 domain D100A [1] = target: GST-Fyn SH3 domain D100A (UniProt P06241); experiment: as above
GST-Fyn SH3 domain D99A [2] = target: GST-Fyn SH3 domain D99A (UniProt P06241); experiment: as above
GST-Fyn SH3 domain E121L = GST-Fyn SH3 domain E121L (UniProt P06241); experiment: as above
GST-Fyn SH3 domain E129Q = GST-Fyn SH3 domain E129Q (UniProt P06241); experiment: as above
GST-Fyn SH3 domain L112V = GST-Fyn SH3 domain L112V (UniProt P06241); experiment: as above
[3] = target: GST-Fyn SH3 domain N136A/Y137A (UniProt P06241); experiment: as above
GST-Fyn SH3 domain W119A [4] = target: GST-Fyn SH3 domain W119A (UniProt P06241); experiment: as above
[5] = target: GST-Fyn SH3 domain Y91A/Y93A (UniProt P06241); experiment: as above
[6] = target: GST-Fyn SH3 domain fusion protein (wild type) (UniProt P06241); experiment: as above
GST-Fyn SH3 domain D100A [7] = target: GST-Fyn SH3 domain D100A (UniProt P06241); experiment: pull-down; GST-SH3 domain fusion proteins on glutathione agarose beads; 5 μg purified NS5A, 4°C, 3 h; washes in GLB with 0.5 M KCl and GLB; elution with 20 mM reduced glutathione; western blot for NS5A; both purified
GST-Fyn SH3 domain D99A [8] = target: GST-Fyn SH3 domain D99A (UniProt P06241); experiment: as above
[9] = target: GST-Fyn SH3 domain N136A/Y137A (UniProt P06241); experiment: as above
GST-Fyn SH3 domain W119A [10] = target: GST-Fyn SH3 domain W119A (UniProt P06241); experiment: as above
[11] = target: GST-Fyn SH3 domain Y91A/Y93A (UniProt P06241); experiment: as above
[12] = target: GST-Fyn SH3 domain fusion protein (wild type) (UniProt P06241); experiment: as above

In the case of “NS5A(Δ32), N-terminally truncated hepatitis C virus non-structural 5A protein (from UniProt O92972) (domain or fragment)”, the binding (GST-Fyn SH3 domain A95S) is reported as “binds”, the binding (GST-Fyn SH3 domain D100A [1]) is reported as “binds” and the binding (GST-Fyn SH3 domain D99A [2]) is reported as “binds”. For the same substance, the binding (GST-Fyn SH3 domain E121L) was “binds”, the binding (GST-Fyn SH3 domain E129Q) was “binds” and the binding (GST-Fyn SH3 domain L112V) was “binds”. For the same substance, the binding [3] was “no binding (tested: 0.5 μg/well of purified NS5A in 50 μl)”, the binding (GST-Fyn SH3 domain W119A [4]) was “no binding (tested: 0.5 μg/well of purified NS5A in 50 μl)” and the binding [5] was “no binding (tested: 0.5 μg/well of purified NS5A in 50 μl)”. For the same substance, the binding [6] was “binds”, the binding (GST-Fyn SH3 domain D100A [7]) was “binds” and the binding (GST-Fyn SH3 domain D99A [8]) was “binds”. The binding [9] was “no binding (tested: 5 μg of purified NS5A)”, the binding (GST-Fyn SH3 domain W119A [10]) was “no binding (tested: 5 μg of purified NS5A)” and the binding [11] was “no binding (tested: 5 μg of purified NS5A)”. The binding [12] was “binds”.
